PubChem BioAssay AID540276 (National Center for Advancing Translational Sciences (NCATS), 2011)
Values joined by “and” are separate entries in the source; they are usually repeats but may differ in a detail not shown here. Equal entries are not always repeated. In all, about 300,000 compounds went through this assay and about 5,400 (1.8%) were called active. The inconclusive results got no clear call from the source; some entries with a clear call stand among them for comparison. The call rests on the fitted dose curve; tested in HEK293 cells. A potency beside an inconclusive call is a rough fit, not a confirmed value.

Experiment: qHTS for inhibitors of binding or entry into cells for Marburg Virus
Conditions: Marburg virus pseudotyped entry inhibition, cell reporter; series mostly up to 37.8 µM
Potency means the concentration at half of the fitted maximal effect.

Row | Compound | Potency
1 | CCS(=O)(=O)c1ccc2oc(Nc3ccc(OC)c(OC)c3)nc2c1 | inactive
2 | O=C(Cc1ccccc1)N/N=C/c1ccc([N+](=O)[O-])s1 | inconclusive: 12.6 µM [inhibitor, single point]
3 | CC1(C)S/C(=N/N=C/c2ccco2)NC1=O | inconclusive: 3.55 µM [inhibitor, single point]
4 | Cc1ccc(CNC(C)c2ccccc2)s1 (stereo not drawn) | inconclusive: 35.5 µM [activator, single point]
5 | CN(C1CCS(=O)(=O)C1)S(=O)(=O)c1ccc(N2CCCC2=O)cc1 (stereo not drawn) | inconclusive: 0.116 µM [inhibitor, full curve, poor fit]
6 | COc1ccc(N(C(=O)c2snc(C(N)=O)c2N)C(C(=O)NC2CCCC2)c2ccc(F)cc2)c(OC)c1 (stereo not drawn) | inconclusive: 31.6 µM [inhibitor, single point]
7 | O=C(Nc1cccnc1Cl)c1ccc(Cl)c([N+](=O)[O-])c1 | inactive
8 | CC(CN1CCCC1)OC(=O)c1ccccc1Cl (stereo not drawn) | inactive
9 | CC(C)Cn1c(-c2csc3c2CCCC3)n[nH]c1=S | inactive
10 | CCN(c1ccc(C)cc1C)S(=O)(=O)c1nnc(NC(=O)C(C)(C)C)s1 | inconclusive: 7.94 µM [inhibitor, partial curve]
11 | O=C(O)C(Cc1ccccc1)n1c(=S)[nH]c2ccccc2c1=O (stereo not drawn) | inconclusive: 35.5 µM [activator, single point]
12 | COc1cccc2cc(NC(=O)C3CCCCC3)c(=O)oc12 | inconclusive: 1.03 µM [activator, single point]
13 | O=C(NC1CCCCC1)NC12CC3CC(CC(C3)C1)C2 | inactive
14 | CCCCC1=CC2=C(c3ccco3)C(=O)C(C)(OC(=O)c3ccc(OC)cc3)C(=O)C2=CN1c1ccccc1 (stereo not drawn) | inconclusive: 6.68 µM [activator, single point]
15 | O=C(O)C(Cc1c[nH]c2ccccc12)N1C(=O)C2C3c4ccccc4C(c4ccccc43)[C@@H]2C1=O (stereo partly drawn) | inactive
16 | COc1ccc(CNCC(O)(c2ccc(Cl)cc2)c2ccc(Cl)cc2)cc1OC | inconclusive: 14.6 µM [inhibitor, partial curve, poor fit]
17 | O=C(Nc1ccc(Cl)cc1)NN1CCCCCC1 | inactive
18 | COc1ccc(C(=O)NN2C(=O)C3CCC(C)(C2=O)C3(C)C)cc1 (stereo not drawn) | inconclusive: 0.231 µM [activator, single point]
19 | O=C(CSc1ccc2ccccc2n1)NCCC1=CCCCC1 | inconclusive: 22.4 µM [inhibitor, partial curve, poor fit]
20 | COc1ccc(C(=O)Nc2ccc(OCc3ccccc3)cc2)cc1[N+](=O)[O-] | inconclusive: 29.1 µM [inhibitor, single point]
21 | COc1ccc2oc(C(=O)OCC(=O)Nc3ccccc3)c(C)c2c1 | inconclusive: 12.6 µM [activator, single point]
22 | Cn1nc(C(F)(F)F)c(C(=O)Nc2ccc(F)cc2F)c1Sc1cccc(Cl)c1 | inconclusive: 23.1 µM [inhibitor, single point]

Sorted by molar mass (ascending): part of the list above.
Row | Compound | Potency
12 | COc1cccc2cc(NC(=O)C3CCCCC3)c(=O)oc12 | inconclusive: 1.03 µM [activator, single point]
15 | O=C(O)C(Cc1c[nH]c2ccccc12)N1C(=O)C2C3c4ccccc4C(c4ccccc43)[C@@H]2C1=O (stereo partly drawn) | inactive
14 | CCCCC1=CC2=C(c3ccco3)C(=O)C(C)(OC(=O)c3ccc(OC)cc3)C(=O)C2=CN1c1ccccc1 (stereo not drawn) | inconclusive: 6.68 µM [activator, single point]

(listing goes on)

Row | Compound | Potency
23 | O=C(CCN1CCCCC1)NCNC(=O)CCN1CCCCC1 | inconclusive: 25.9 µM [inhibitor, partial curve, poor fit]
24 | Cc1ccc(C(CC(=O)NCC2(c3ccccc3)CCCC2)c2ccccc2)c(O)c1 (stereo not drawn) | inconclusive: 11.2 µM [inhibitor, partial curve, poor fit]
25 | CC1CC(C)CN(c2ncc3c(n2)CC(c2ccccc2)CC3=O)C1 (stereo not drawn) | inactive
26 | Clc1nnc(N/N=C/c2ccccc2)c2ccccc12 | inconclusive: 0.517 µM [activator, full curve, poor fit]
27 | Cc1ccc(-c2csc(NC(=O)/C=C/c3cccs3)n2)cc1C | inconclusive: 14.1 µM [inhibitor, partial curve, poor fit]
28 | Cc1cccc(CNC(=O)Cc2csc3ccccc23)c1 | inconclusive: 1.12 µM [activator, full curve, poor fit]
29 | O=S(=O)(c1ccccc1)N1CCC(Oc2ccc(-n3cnnn3)cc2)CC1 | inconclusive: 11.2 µM [inhibitor, partial curve, poor fit]
30 | O=C(O)Cc1c[nH]c2ccc(O)cc12 | inconclusive: 6.51 µM [activator, single point] and inconclusive: 20 nM [activator, full curve, poor fit]
31 | COc1cccc(-c2cc(C(=O)Nc3ccccc3SC)no2)c1 | inconclusive: 23.1 µM [activator, single point]
32 | CC12C=C(/C=C/C=C/c3ccco3)C(C)(C1)C(/C=C/c1ccco1)CC2=O (stereo not drawn) | inconclusive: 0.0473 µM [activator, full curve, poor fit]
33 | c1coc(CNc2c3c(nc4ncnn24)CCC3)c1 | inactive
34 | CC(C)c1onc(C(=O)NC2CCCCC2)c1[N+](=O)[O-] | inactive
35 | O=C(O)C1CCC(CNS(=O)(=O)c2ccc(Cl)cc2)CC1 (stereo not drawn) | inactive
36 | COc1ccc(Nc2nc(N)c([N+](=O)[O-])c(NC3CCCCC3)n2)cc1 | inconclusive: 3.98 µM [inhibitor, partial curve, poor fit]
37 | CCOc1cc2sc(N3CCC(C(=O)Nc4ccc(C(C)C)cc4)CC3)nc2cc1Br | inconclusive: 2.51 µM [activator, partial curve, poor fit]
38 | CCn1c(SCc2ccc(OC)c(F)c2)nc2ccccc2c1=O | inconclusive: 7.94 µM [inhibitor, partial curve, poor fit]
39 | COc1ccc(NC(=S)NCCCN2CCCC2)cc1 | inconclusive: 35.5 µM [inhibitor, single point]
40 | CCOC(=O)c1[nH]c(C)c(C(=O)OCCOc2cccc(C)c2)c1C | inconclusive: 6.31 µM [activator, single point]
41 | OCCC1CN(Cc2cccn2-c2ncccn2)CCN1Cc1ccccc1 (stereo not drawn) | inactive
42 | COc1ccc(C(=O)NCC(=O)NCC(=O)OCC(=O)c2cccs2)cc1 | inconclusive: 15.8 µM [activator, partial curve, poor fit]
43 | CCOc1cnn(Cc2ccccc2)c(=O)c1SCc1ccccc1 | inactive

Some of the entries so far, as tab-separated lines:
Row	Compound	Potency
34	CC(C)c1onc(C(=O)NC2CCCCC2)c1[N+](=O)[O-]	inactive
35	O=C(O)C1CCC(CNS(=O)(=O)c2ccc(Cl)cc2)CC1 (stereo not drawn)	inactive
